Colour and Coloration data for 10 compounds are collected here from patent US4209439A, “Stabilization of vinyl resins” (priority 1977, dated 1980).

The structures appear in SMILES notation. A value given as a limit tells only on which side of the number the result lay.

A short description of data set [1]: static thermostability of polyvinyl chloride, oven at 210° C. Also on record: key: The symbol "B" indicates "burnt"; the index "+" signifies that the colour is disposed half-way between the lower unit and the upper half-unit; the index "-" signifies that the colour is between the lower half-unit and the upper unit; >2 means that it is between 2 and 2^+.
Data set [2] can be described thus: static thermostability of polyvinyl chloride, oven at […] C. Also on record: key: The symbol "B" indicates "burnt"; the index "+" signifies that the colour is disposed half-way between the lower unit and the upper half-unit; the index "-" signifies that the colour is between the lower half-unit and the upper unit; >2 means that it is between 2 and 2^+.
Data set [3] can be described thus: photostabilising, flexible vinyl chloride-vinyl acetate copolymer (Example 6). To be noted: Test A, 0.3 part.
[4] abbreviates: equimolecular, 1.55×1^-3 mole, 0 min.
Setting [5] is: equimolecular, 1.55×1^-3 mole, 6 min.
[6] abbreviates: equimolecular, 1.55×1^-3 mole, 12 min.
Setting [7] is: equimolecular, 1.55×1^-3 mole, 18 min.
The mark [8] stands for this setting: equimolecular, 1.55×1^-3 mole, 24 min.
The mark [9] stands for this setting: equimolecular, 1.55×1^-3 mole, 27 min.
Where [10] appears, read: equimolecular, 1.55×1^-3 mole, 30 min.
Where [11] appears, read: equimolecular, 1.55×1^-3 mole, 33 min.
Setting [12] is: equimolecular, 1.55×1^-3 mole, 36 min.

Consider `CCOC(=O)C1=C(C)NC(C)=C(C(=O)OCC)C1` [L.28501, 2,6-Dimethyl-3,5-dicarboethoxy-1,4-dihydropyridine], for which the colour in data set [1] (Ex. 10, 0.3 part, 0 min) was 1 Gardner; in data set [1] (Ex. 10, 0.3 part, 3 min), 1 Gardner; in data set [1] (Ex. 10, 0.3 part, 6 min) it was 2 Gardner; in data set [1] (Ex. 10, 0.3 part, 9 min), 2 Gardner; in data set [1] (Ex. 10, 0.3 part, 12 min), 4 Gardner; in data set [1] (Ex. 10, 0.3 part, 15 min), 8.5 Gardner. The colour entry in data set [1] (Ex. 10, 0.3 part, 18 min) is reported as “B”; in data set [2] (0.3 part, 0 min) it was 1 Gardner; in data set [2] (0.3 part, 6 min), 1 Gardner; in data set [2] (0.3 part, 12 min) it was 2 Gardner; in data set [2] (0.3 part, 18 min), 8 Gardner; in data set [2] (0.3 part, 24 min), 11 Gardner. Also, the colour was 13 Gardner in data set [2] (0.3 part, 27 min); 13 Gardner in data set [2] (0.3 part, 30 min); 18 Gardner in data set [2] (0.3 part, 33 min); “B” in data set [2] (0.3 part, 36 min); 1 Gardner in data set [2] (setting [4]); 1 Gardner in data set [2] (setting [5]). In addition, the colour is on record as 1 Gardner in data set [2] (setting [6]); 5 Gardner in data set [2] (setting [7]); 10 Gardner in data set [2] (setting [8]); 11 Gardner in data set [2] (setting [9]); “B” in data set [2] (setting [10]).

For the compound `CCCOC(=O)C1=C(C)NC(C)=C(C(=O)OCCC)C1` [L.28509], the colour in data set [1] (Ex. 10, 0.3 part, 0 min) was 1 Gardner; in data set [1] (Ex. 10, 0.3 part, 3 min) it was 1 Gardner; in data set [1] (Ex. 10, 0.3 part, 6 min), 2 Gardner; in data set [1] (Ex. 10, 0.3 part, 9 min), 4 Gardner; in data set [1] (Ex. 10, 0.3 part, 12 min), 4 Gardner; in data set [1] (Ex. 10, 0.3 part, 15 min) it was 17 Gardner. For the same compound, the colour entry in data set [1] (Ex. 10, 0.3 part, 18 min) was “B”; in data set [2] (0.3 part, 0 min), 1 Gardner; in data set [2] (0.3 part, 6 min), 1 Gardner; in data set [2] (0.3 part, 12 min) it was 2 Gardner; in data set [2] (0.3 part, 18 min), 3 Gardner; in data set [2] (0.3 part, 24 min) it was 5 Gardner. The colour turned out to be 9 Gardner in data set [2] (0.3 part, 27 min); 9 Gardner in data set [2] (0.3 part, 30 min); 11 Gardner in data set [2] (0.3 part, 33 min); 13 Gardner in data set [2] (0.3 part, 36 min); 14 Gardner in data set [2] (0.3 part, 39 min); 15 Gardner in data set [2] (0.3 part, 42 min).

For the compound `CC1=C(C(=O)OC(C)(C)C)CC(C(=O)OC(C)(C)C)=C(C)N1` [L.28510], the colour is 1 Gardner in data set [1] (Ex. 10, 0.3 part, 0 min); 1 Gardner in data set [1] (Ex. 10, 0.3 part, 3 min); 4 Gardner in data set [1] (Ex. 10, 0.3 part, 6 min); 5 Gardner in data set [1] (Ex. 10, 0.3 part, 9 min); 15 Gardner in data set [1] (Ex. 10, 0.3 part, 12 min); “B” in data set [1] (Ex. 10, 0.3 part, 15 min). The colour came out at 1 Gardner in data set [2] (0.3 part, 0 min); 1 Gardner in data set [2] (0.3 part, 6 min); 2 Gardner in data set [2] (0.3 part, 12 min); 4 Gardner in data set [2] (0.3 part, 18 min); 10 Gardner in data set [2] (0.3 part, 24 min); 18 Gardner in data set [2] (0.3 part, 27 min). The colour is listed as 18 Gardner in data set [2] (0.3 part, 30 min); 19 Gardner in data set [2] (0.3 part, 33 min); 19 Gardner in data set [2] (0.3 part, 36 min); “B” in data set [2] (0.3 part, 39 min).

On to `CC1=C(C(=O)Oc2ccccc2)CC(C(=O)Oc2ccccc2)=C(C)N1` [L.28531], for which the colour is recorded as 1 Gardner in data set [2] (0.3 part, 0 min); 1 Gardner in data set [2] (0.3 part, 6 min); 3 Gardner in data set [2] (0.3 part, 12 min); 7 Gardner in data set [2] (0.3 part, 18 min); 10 Gardner in data set [2] (0.3 part, 24 min); 10 Gardner in data set [2] (0.3 part, 27 min). Moreover, the colour is on record as 10 Gardner in data set [2] (0.3 part, 30 min); 16 Gardner in data set [2] (0.3 part, 33 min); “B” in data set [2] (0.3 part, 36 min); 1 Gardner in data set [2] (setting [4]); 1 Gardner in data set [2] (setting [5]); 2 Gardner in data set [2] (setting [6]). For the same compound, the colour in data set [2] (setting [7]) is reported as 5 Gardner; in data set [2] (setting [8]), 8.5 Gardner; in data set [2] (setting [9]) it was 10.5 Gardner; in data set [2] (setting [10]), 11 Gardner; in data set [2] (setting [11]), 16 Gardner; in data set [2] (setting [12]) it was “B”.

As for `CC1=C(C(=O)Oc2ccc(C)cc2)CC(C(=O)Oc2ccc(C)cc2)=C(C)N1` [L.28538], the colour in data set [1] (Ex. 10, 0.3 part, 0 min) is recorded as 1 Gardner; in data set [1] (Ex. 10, 0.3 part, 3 min), 1 Gardner; in data set [1] (Ex. 10, 0.3 part, 6 min), 3 Gardner; in data set [1] (Ex. 10, 0.3 part, 9 min), 3 Gardner; in data set [1] (Ex. 10, 0.3 part, 12 min), 4 Gardner; in data set [1] (Ex. 10, 0.3 part, 15 min) it was 14 Gardner. Also, the colour entry was “B” in data set [1] (Ex. 10, 0.3 part, 18 min); 1 Gardner in data set [2] (0.3 part, 0 min); 1 Gardner in data set [2] (0.3 part, 6 min); 3 Gardner in data set [2] (0.3 part, 12 min); 10 Gardner in data set [2] (0.3 part, 18 min); 13 Gardner in data set [2] (0.3 part, 24 min). The colour in data set [2] (0.3 part, 27 min) is 13 Gardner; in data set [2] (0.3 part, 30 min), 14 Gardner; in data set [2] (0.3 part, 33 min) it was 17 Gardner; in data set [2] (0.3 part, 36 min) it was 17 Gardner; in data set [2] (0.3 part, 39 min), “B”; in data set [2] (setting [4]) it was 1 Gardner. Also, the colour in data set [2] (setting [5]) is listed as 1 Gardner; in data set [2] (setting [6]), 2 Gardner; in data set [2] (setting [7]) it was 7 Gardner; in data set [2] (setting [8]), 7 Gardner; in data set [2] (setting [9]) it was 9 Gardner; in data set [2] (setting [10]) it was 10 Gardner. For the same compound, the figures for the colour in data set [2] (setting [11]) and in data set [2] (setting [12]) were 17 Gardner and “B”, respectively.

In the case of `CCCCOC(=O)C1=C(C)NC(C)=C(C(=O)OCCCC)C1` [L.28552, 2,6-Dimethyl-3,5-dicarbobutoxy-1,4-dihydropyridine], the colour in data set [1] (Ex. 10, 0.3 part, 0 min) was found to be 1 Gardner; in data set [1] (Ex. 10, 0.3 part, 3 min), 1 Gardner; in data set [1] (Ex. 10, 0.3 part, 6 min), 2 Gardner; in data set [1] (Ex. 10, 0.3 part, 9 min) it was 4 Gardner; in data set [1] (Ex. 10, 0.3 part, 12 min), 11 Gardner; in data set [1] (Ex. 10, 0.3 part, 15 min) it was 12 Gardner. For the same compound, in data set [1] (Ex. 10, 0.3 part, 18 min), the colour entry is “B”.

As to `CCCCCCCCCCCCCCOC(=O)C1=C(C)NC(C)=C(C(=O)OCCCCCCCCCCCCCC)C1` [L.28590, 2,6-Dimethyl-3,5-dicarbotetradecyloxy-1,4-dihydropyridine], the colour is listed as 2 Gardner in data set [1] (0.1 p.c.r., 0 min); 2 Gardner in data set [1] (0.1 p.c.r., 2 min); 2 Gardner in data set [1] (0.1 p.c.r., 4 min); 2 Gardner in data set [1] (0.1 p.c.r., 6 min); 2 Gardner in data set [1] (0.1 p.c.r., 8 min); 4 Gardner in data set [1] (0.1 p.c.r., 10 min). In addition, the colour was found to be 10.5 Gardner in data set [1] (0.1 p.c.r., 12 min); 1 Gardner in data set [1] (0.2 p.c.r., 0 min); 1 Gardner in data set [1] (0.2 p.c.r., 2 min); 1 Gardner in data set [1] (0.2 p.c.r., 4 min); 2 Gardner in data set [1] (0.2 p.c.r., 6 min); 2 Gardner in data set [1] (0.2 p.c.r., 8 min). In addition, the colour stood at 3 Gardner in data set [1] (0.2 p.c.r., 10 min) and 7 Gardner in data set [1] (0.2 p.c.r., 12 min).

On to `CCCCCCCCCCOC(=O)C1=C(C)NC(C)=C(C(=O)OCCCCCCCCCC)C1` [L.28591], for which the colour in data set [1] (0.1 p.c.r., 0 min) is recorded as 2 Gardner; in data set [1] (0.1 p.c.r., 2 min), 2 Gardner; in data set [1] (0.1 p.c.r., 4 min), 2 Gardner; in data set [1] (0.1 p.c.r., 6 min), 2 Gardner; in data set [1] (0.1 p.c.r., 8 min) it was 2 Gardner; in data set [1] (0.1 p.c.r., 10 min), 4 Gardner. Further, the colour in data set [1] (0.1 p.c.r., 12 min) came out at 10.5 Gardner; in data set [1] (0.2 p.c.r., 0 min), 1 Gardner; in data set [1] (0.2 p.c.r., 2 min), 1 Gardner; in data set [1] (0.2 p.c.r., 4 min), 1 Gardner; in data set [1] (0.2 p.c.r., 6 min) it was 2 Gardner; in data set [1] (0.2 p.c.r., 8 min) it was 2 Gardner. The colour stood at 3 Gardner in data set [1] (0.2 p.c.r., 10 min) and 8 Gardner in data set [1] (0.2 p.c.r., 12 min). Moreover, the Coloration in data set [3] (after 24 hours) and in data set [3] (time 0) was 1 degrees Gardner throughout.

In the case of `CCCCCCCCCCCCCCCCCCOC(=O)C1=C(C)NC(C)=C(C(=O)OCCCCCCCCCCCCCCCCCC)C1` [L.28599, 2,6-Dimethyl-3,5-dicarbooctadecyloxy-1,4-dihydropyridine], the colour in data set [1] (0.2 p.c.r., 0 min) was 1 Gardner; in data set [1] (0.2 p.c.r., 2 min) it was less than 2 Gardner; in data set [1] (0.2 p.c.r., 6 min), 2 Gardner; in data set [1] (0.2 p.c.r., 8 min) it was 3 Gardner; in data set [1] (0.2 p.c.r., 10 min), 3 Gardner; in data set [1] (0.2 p.c.r., 12 min), 10.5 Gardner. The colour is 14 Gardner in data set [1] (0.2 p.c.r., 14 min); less than 2 Gardner in data set [1] (0.2 p.c.r., time printed 1 min); 1 Gardner in data set [1] (x = 0.1 to 0.3 p.c.r., 0 min); 1 Gardner in data set [1] (x = 0.1 to 0.3 p.c.r., 3 min); 1 Gardner in data set [1] (x = 0.1 to 0.3 p.c.r., 6 min); 2 Gardner in data set [1] (x = 0.1 to 0.3 p.c.r., 9 min). In addition, the colour is reported as 4 Gardner in data set [1] (x = 0.1 to 0.3 p.c.r., 12 min) and 13 Gardner in data set [1] (x = 0.1 to 0.3 p.c.r., 15 min). Further, the Coloration in data set [3] (after 24 hours) and in data set [3] (time 0) was 1 degrees Gardner in each case.

For `CCCCCCCC/C=C\CCCCCCCCOC(=O)C1=C(C)NC(C)=C(C(=O)OCCCCCCCC/C=C\CCCCCCCC)C1` [L.28602], the Coloration in data set [3] (after 24 hours) and in data set [3] (time 0) was 1 degrees Gardner throughout.
